Laboratory results: PubChem BioAssay AID743458 (Peter MacCallum Cancer Centre, 2014)

- Test: 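Identify genes whose loss lifts vorinostat resistance in colon cancer cells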 (follow-up of hits)
- Cell system: human HCT116-VR colon cancer cells made resistant to vorinostat
- Reagents: single siRNA or pool against human genes, 25 nM per single siRNA
- Duration: about 72 h after transfection, including 24 h of drug
- Challenge: vorinostat, 2.5 µM final, for 24 h
- Measured: 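Cell viability by fluorescence and apoptosis by caspase 3/7 luminescence under vorinostat, background-corrected, averaged across two plate copies and given as fold change versus mock transfection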
- Reading the numbers: viability relative to mock: higher = more living cells than mock; caspase activity relative to mock: higher = more apoptosis than mock
- Rule for the call: 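An siRNA counts as active if classed as reduced viability or as caspase activation, otherwise inactive; a hit class needed wells that remained healthy in the absence of drug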
In all, the deposit lists about 1,800 reagents; this is an unselected part. In the full data, 732 (41%) got an active call. 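Calls are per siRNA reagent; a gene was deemed confirmed only if most of its four siRNAs scored.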 The numbers tell different reagents against one gene apart.

After knock-down of APOL5 #1, the screen gave viability relative to mock 0.55; caspase activity relative to mock 4.81; viability hit class reduced viability; caspase hit class caspase activation; active. APOL5 #2 scored viability relative to mock 0.77; caspase activity relative to mock 3.35; viability hit class no change; caspase hit class caspase activation; active. With knock-down of APOL5 #3, the record shows viability relative to mock 0.86; caspase activity relative to mock 1.48; viability hit class no change; caspase hit class no change; inactive. Against APOL5 #4, the entry reads viability relative to mock 1.02; caspase activity relative to mock 1.45; viability hit class no change; caspase hit class no change; inactive. For ZNF48 #1, the values are viability relative to mock 0.83; caspase activity relative to mock 0.69; viability hit class no change; caspase hit class no change; inactive. Depletion of ZNF48 #2 gave: viability relative to mock 0.52; caspase activity relative to mock 4.11; viability hit class no change; caspase hit class no change; inactive.

Knock-down of ZNF48 #3 resulted in: viability relative to mock 0.93; caspase activity relative to mock 2; viability hit class no change; caspase hit class no change; inactive. With knock-down of ZNF48 #4, the record shows viability relative to mock 0.75; caspase activity relative to mock 1.36; viability hit class no change; caspase hit class no change; inactive. Depletion of GCOM1 #1 gave: viability relative to mock 0.71; caspase activity relative to mock 5.83; viability hit class no change; caspase hit class caspase activation; active. For GCOM1 #2 the deposit lists viability relative to mock 0.68; caspase activity relative to mock 3.23; viability hit class no change; caspase hit class caspase activation; active. Against GCOM1 #3, the values are viability relative to mock 0.8; caspase activity relative to mock 1.04; viability hit class no change; caspase hit class no change; inactive. With knock-down of GCOM1 #4, the record shows viability relative to mock 0.82; caspase activity relative to mock 1.19; viability hit class no change; caspase hit class no change; inactive.

Looked up above:
Value of GCOM1 #3 in “viability relative to mock”: 0.8
Under “caspase activity relative to mock”, ZNF48 #4 is entered as 1.36

More entries follow:
Against UEVLD #1, the values are viability relative to mock 0.8; caspase activity relative to mock 1.94; viability hit class no change; caspase hit class no change; inactive. UEVLD #2 showed viability relative to mock 0.78; caspase activity relative to mock 1.17; viability hit class no change; caspase hit class no change; inactive. After knock-down of UEVLD #3, the record shows viability relative to mock 0.8; caspase activity relative to mock 0.87; viability hit class no change; caspase hit class no change; inactive. After knock-down of UEVLD #4, the record shows viability relative to mock 0.74; caspase activity relative to mock 3.08; viability hit class no change; caspase hit class caspase activation; active. BICDL1 #1 gave viability relative to mock 0.66; caspase activity relative to mock 1; viability hit class no change; caspase hit class no change; inactive. Knock-down of BICDL1 #2 came out at: viability relative to mock 0.34; caspase activity relative to mock 1.13; viability hit class reduced viability; caspase hit class no change; active.

BICDL1 #3 gave viability relative to mock 0.72; caspase activity relative to mock 2.25; viability hit class no change; caspase hit class no change; inactive. Silencing of BICDL1 #4 resulted in: viability relative to mock 0.86; caspase activity relative to mock 1.12; viability hit class no change; caspase hit class no change; inactive. VPS11 #1 scored viability relative to mock 0.88; caspase activity relative to mock 1.61; viability hit class no change; caspase hit class no change; inactive. VPS11 #2 gave viability relative to mock 0.84; caspase activity relative to mock 1.17; viability hit class no change; caspase hit class no change; inactive. Depletion of VPS11 #3 came out at: viability relative to mock 0.88; caspase activity relative to mock 2.33; viability hit class no change; caspase hit class no change; inactive. After knock-down of VPS11 #4 the results were viability relative to mock 0.78; caspase activity relative to mock 1.48; viability hit class no change; caspase hit class no change; inactive.

BCL3 #1 gave viability relative to mock 0.38; caspase activity relative to mock 4.05; viability hit class reduced viability; caspase hit class caspase activation; active. BCL3 #2 gave viability relative to mock 0.76; caspase activity relative to mock 1.57; viability hit class no change; caspase hit class no change; inactive. Against BCL3 #3 the deposit lists viability relative to mock 0.86; caspase activity relative to mock 1.27; viability hit class no change; caspase hit class no change; inactive. For BCL3 #4, the values are viability relative to mock 1.09; caspase activity relative to mock 1.3; viability hit class no change; caspase hit class no change; inactive.
